Results are given in words; binding and its absence hold for the method and conditions named. Some entries that bind do so weakly or less than the wild type.
Target: protein VC1979 of Vibrio cholerae (dNTPase) (Vibrio cholerae) (UniProt Q9KQL9)
Experiment: cryo-EM structure; single-particle analysis on images from the same grid as the tomography; about 34k particles from the best 64 micrographs; total dose ~60 e-/Å^2; both purified

B1: protein VC1979 of Vibrio cholerae (dNTPase) (enzyme)
chain: QVSLNPEWLARNNDEHKIRRNDHRSPFQRDRARILHSAAFRRLQAKTQVHGTSLNDFHRTRLTHSLEAAQIGTGIVAQIKLKQPEFRELLPSDSLIDSLCLAHDIGHPPYGHGGEIALNYMMRDHGGFEGNAQTFRIVTSLEPYTEHHGMNLSRRTLLGLLKYPALLSATRAAIPPPAVAHQRQLKAKDWSPAKGIYDCDLASLDWVLEPLCESDRELLGQMRAEPSSPKEHRKTRFKSLDCSIMELADDIAYGVHDLEDAIVLGMVTRAQWQEAAAAQLAECGDPWFEEHIAELSEMLFSGKHYVRKDAIGGIVNALLTSISVKPVEAPFHNELLAFNAYIEPHMGNALEVLKHFVSQYVIQIPQVQRFEYKGQQLIMDLFEALSADPERLLPQATGEKWRKAQEQDEGMRVICDYIAAMTDAYAQRLHQQLFSAQSHY
binding: binds

Reference: paper PMC8009872, “Beam image-shift accelerated data acquisition for near-atomic resolution single-particle cryo-electron tomography” (Nature Communications, 2021)
